From the supplement of paper PMC11006884
This is a selection; strong and weak results do not stand in their true shares.

Protein sequences, listed by entry. Tags and fused reporters are not part of them. Lines headed by an entry give the natural chain unless they say otherwise; changes in a name come on top.
UniProt O94901, whole entry: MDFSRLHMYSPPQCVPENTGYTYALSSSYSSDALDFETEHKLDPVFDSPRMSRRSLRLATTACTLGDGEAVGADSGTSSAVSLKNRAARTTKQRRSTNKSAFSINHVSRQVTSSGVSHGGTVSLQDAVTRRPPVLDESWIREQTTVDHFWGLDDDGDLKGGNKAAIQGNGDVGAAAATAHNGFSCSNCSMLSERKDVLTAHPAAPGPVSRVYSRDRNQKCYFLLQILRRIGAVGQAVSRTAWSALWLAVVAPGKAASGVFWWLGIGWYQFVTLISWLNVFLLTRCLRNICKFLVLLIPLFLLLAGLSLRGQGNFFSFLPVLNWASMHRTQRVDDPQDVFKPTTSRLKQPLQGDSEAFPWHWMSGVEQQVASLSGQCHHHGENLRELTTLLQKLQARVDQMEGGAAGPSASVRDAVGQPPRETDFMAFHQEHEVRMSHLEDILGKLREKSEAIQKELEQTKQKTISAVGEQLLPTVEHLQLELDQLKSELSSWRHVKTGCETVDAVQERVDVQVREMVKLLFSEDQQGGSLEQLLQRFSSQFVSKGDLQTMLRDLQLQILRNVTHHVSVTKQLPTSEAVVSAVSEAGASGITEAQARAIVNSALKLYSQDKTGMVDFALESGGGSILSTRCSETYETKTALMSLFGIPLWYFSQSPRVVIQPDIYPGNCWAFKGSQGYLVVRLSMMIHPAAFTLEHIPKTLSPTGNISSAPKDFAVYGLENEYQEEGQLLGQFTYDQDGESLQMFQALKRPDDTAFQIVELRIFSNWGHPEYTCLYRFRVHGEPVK
UniProt P07437, whole entry, looked up: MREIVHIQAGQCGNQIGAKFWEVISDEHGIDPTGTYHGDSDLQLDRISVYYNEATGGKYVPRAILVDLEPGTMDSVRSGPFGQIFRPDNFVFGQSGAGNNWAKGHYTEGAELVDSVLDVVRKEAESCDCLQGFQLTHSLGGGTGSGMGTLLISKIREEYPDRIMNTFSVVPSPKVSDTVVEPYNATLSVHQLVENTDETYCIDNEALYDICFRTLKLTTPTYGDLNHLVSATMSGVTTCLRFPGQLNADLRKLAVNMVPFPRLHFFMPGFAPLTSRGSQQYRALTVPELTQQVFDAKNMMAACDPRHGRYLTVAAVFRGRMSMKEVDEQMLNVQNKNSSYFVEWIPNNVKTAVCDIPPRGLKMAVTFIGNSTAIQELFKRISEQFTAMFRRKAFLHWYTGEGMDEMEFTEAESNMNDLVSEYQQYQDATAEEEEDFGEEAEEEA
UniProt P04632: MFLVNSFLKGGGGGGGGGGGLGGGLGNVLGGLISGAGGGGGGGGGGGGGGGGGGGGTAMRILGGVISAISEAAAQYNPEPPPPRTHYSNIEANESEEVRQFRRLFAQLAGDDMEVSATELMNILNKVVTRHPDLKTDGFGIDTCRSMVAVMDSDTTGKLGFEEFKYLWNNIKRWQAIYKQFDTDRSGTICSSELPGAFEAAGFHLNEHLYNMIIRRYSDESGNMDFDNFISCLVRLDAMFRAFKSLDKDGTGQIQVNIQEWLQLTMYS
UniProt O95696: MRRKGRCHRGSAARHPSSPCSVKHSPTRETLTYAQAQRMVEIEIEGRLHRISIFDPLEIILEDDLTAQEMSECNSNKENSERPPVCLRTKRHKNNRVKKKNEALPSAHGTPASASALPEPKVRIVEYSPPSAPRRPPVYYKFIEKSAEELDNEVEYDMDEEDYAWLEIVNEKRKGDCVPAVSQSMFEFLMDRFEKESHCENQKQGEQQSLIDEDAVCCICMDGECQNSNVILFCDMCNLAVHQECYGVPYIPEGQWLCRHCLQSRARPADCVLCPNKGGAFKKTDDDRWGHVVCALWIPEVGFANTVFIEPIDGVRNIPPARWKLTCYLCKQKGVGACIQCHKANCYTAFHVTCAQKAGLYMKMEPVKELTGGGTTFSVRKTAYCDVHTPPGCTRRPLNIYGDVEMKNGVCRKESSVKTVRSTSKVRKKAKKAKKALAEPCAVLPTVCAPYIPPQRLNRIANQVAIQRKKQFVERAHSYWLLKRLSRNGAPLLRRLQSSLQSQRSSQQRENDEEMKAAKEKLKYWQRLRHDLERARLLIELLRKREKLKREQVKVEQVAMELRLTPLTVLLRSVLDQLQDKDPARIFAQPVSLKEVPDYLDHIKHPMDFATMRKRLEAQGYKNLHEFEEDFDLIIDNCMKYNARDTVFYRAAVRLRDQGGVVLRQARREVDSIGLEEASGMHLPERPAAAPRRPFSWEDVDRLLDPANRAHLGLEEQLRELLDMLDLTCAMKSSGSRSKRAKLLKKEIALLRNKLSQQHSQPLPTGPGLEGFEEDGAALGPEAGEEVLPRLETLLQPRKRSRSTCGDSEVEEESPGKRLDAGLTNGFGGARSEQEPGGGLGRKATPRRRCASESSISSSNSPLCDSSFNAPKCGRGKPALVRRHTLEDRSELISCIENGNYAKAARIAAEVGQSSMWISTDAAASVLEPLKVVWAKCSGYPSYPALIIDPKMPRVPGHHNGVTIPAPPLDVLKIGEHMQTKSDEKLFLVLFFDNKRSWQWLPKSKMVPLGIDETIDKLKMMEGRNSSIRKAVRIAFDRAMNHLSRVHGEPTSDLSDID
UniProt P00492: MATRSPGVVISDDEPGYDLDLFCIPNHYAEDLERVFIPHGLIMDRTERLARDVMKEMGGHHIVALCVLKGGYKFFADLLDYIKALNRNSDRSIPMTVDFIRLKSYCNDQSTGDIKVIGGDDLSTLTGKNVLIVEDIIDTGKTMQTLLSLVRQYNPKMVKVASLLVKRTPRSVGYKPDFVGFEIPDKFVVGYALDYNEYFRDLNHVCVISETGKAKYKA
UniProt P04637, whole entry, looked up: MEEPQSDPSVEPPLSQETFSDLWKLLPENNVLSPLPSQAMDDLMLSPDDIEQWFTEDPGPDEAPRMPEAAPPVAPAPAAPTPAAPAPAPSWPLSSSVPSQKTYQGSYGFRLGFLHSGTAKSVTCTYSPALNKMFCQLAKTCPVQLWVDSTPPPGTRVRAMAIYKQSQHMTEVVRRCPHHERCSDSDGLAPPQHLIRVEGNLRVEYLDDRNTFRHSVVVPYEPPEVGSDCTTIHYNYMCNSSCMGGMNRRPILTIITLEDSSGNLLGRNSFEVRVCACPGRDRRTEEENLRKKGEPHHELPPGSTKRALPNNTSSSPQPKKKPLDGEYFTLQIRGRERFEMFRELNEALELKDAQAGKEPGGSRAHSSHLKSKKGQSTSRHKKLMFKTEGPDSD
UniProt O95602, whole entry, looked up: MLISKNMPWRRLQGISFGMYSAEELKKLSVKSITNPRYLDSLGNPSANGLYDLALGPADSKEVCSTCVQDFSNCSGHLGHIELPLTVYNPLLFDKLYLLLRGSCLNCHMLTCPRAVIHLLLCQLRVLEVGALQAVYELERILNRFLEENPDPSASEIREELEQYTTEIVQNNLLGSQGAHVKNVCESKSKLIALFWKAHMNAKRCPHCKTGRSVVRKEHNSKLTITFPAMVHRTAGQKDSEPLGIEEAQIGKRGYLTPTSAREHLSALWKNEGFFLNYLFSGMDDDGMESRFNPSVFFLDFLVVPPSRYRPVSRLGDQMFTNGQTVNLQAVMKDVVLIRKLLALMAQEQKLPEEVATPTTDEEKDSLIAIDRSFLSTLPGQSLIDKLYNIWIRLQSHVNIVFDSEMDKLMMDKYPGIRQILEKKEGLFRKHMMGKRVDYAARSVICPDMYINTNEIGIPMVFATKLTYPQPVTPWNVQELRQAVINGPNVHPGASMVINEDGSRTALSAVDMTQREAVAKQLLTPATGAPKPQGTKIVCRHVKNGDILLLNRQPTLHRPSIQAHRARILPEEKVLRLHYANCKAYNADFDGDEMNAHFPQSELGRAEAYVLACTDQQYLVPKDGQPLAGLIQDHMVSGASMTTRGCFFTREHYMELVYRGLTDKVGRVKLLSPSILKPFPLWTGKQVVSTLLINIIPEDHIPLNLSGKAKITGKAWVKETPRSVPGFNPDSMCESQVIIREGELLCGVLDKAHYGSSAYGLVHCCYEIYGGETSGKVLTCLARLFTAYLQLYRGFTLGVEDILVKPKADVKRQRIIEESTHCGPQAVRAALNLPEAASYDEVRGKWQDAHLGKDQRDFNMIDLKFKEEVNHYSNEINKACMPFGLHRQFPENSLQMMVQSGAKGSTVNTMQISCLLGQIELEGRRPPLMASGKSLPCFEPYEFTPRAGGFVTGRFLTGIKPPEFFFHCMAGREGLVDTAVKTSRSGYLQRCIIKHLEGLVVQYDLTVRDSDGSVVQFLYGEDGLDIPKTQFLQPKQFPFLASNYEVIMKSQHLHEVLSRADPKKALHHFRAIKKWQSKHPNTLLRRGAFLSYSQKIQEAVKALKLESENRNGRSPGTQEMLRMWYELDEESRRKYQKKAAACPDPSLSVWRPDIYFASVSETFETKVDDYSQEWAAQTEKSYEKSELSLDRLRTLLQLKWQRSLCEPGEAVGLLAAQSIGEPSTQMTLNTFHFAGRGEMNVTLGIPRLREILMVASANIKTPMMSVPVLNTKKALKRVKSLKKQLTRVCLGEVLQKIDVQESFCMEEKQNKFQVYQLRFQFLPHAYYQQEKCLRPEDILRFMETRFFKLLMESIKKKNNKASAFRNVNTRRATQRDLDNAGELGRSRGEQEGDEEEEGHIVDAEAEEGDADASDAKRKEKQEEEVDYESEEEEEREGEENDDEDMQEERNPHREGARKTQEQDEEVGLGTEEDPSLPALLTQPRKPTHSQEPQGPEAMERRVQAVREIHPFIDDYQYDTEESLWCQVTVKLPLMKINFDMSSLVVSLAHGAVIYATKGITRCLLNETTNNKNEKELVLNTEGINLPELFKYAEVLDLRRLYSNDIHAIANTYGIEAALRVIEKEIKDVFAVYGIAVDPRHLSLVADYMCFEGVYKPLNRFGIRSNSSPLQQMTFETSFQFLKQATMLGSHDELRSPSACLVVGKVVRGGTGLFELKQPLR
UniProt P07355, whole entry, looked up: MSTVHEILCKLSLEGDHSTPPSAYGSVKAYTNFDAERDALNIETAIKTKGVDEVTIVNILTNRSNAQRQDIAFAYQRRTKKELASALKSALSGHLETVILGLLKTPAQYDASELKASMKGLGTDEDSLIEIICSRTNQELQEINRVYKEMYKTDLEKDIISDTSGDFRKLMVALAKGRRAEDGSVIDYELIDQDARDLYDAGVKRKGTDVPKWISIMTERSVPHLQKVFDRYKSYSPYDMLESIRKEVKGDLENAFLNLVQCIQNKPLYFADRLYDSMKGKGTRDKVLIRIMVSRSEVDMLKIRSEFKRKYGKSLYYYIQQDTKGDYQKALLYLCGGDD
UniProt P04181: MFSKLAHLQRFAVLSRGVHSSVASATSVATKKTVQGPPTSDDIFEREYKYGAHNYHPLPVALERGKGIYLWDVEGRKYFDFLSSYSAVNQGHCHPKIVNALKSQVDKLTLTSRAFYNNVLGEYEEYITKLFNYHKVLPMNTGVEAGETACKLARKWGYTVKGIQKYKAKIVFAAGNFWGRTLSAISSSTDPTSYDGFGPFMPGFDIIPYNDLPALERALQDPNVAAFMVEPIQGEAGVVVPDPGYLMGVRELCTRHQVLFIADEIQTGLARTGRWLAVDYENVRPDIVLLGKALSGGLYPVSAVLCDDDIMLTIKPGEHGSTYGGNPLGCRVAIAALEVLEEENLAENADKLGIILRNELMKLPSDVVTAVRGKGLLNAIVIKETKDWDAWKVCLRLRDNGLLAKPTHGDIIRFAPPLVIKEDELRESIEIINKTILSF
UniProt P07737, whole entry, looked up: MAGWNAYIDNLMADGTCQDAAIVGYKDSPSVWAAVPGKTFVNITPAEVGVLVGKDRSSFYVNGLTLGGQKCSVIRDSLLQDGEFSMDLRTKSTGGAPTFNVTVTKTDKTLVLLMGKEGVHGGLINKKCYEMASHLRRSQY

What follows are targets tested with COC(=O)C#Cc1ccccc1 [methyl 3-phenylpropiolate] (assay: log2 ratio of iodoacetamide-alkyne labeling of the cysteine site, DMSO over compound (competition); higher = stronger covalent engagement of the cysteine by the compound, active = 1 or more). Settings: 500 µM; treatment time 1 h; system: HEK293T cell lysate.
Outline: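 HEK293T lysate at 2 mg/mL was treated with vehicle or electrophile (500 µM) for 1 h at ambient temperature, then labelled with iodoacetamide alkyne (1 h), clicked to sCIP-TMT reagents, pooled, digested with trypsin overnight at 37 °C, enriched on streptavidin and eluted with acid. Peptides were analysed by Orbitrap Eclipse LC-MS/MS with FAIMS and quantified in FragPipe, using duplicate channels and three replicates, with cysteines quantified in only one replicate excluded. The log2 competition ratio for each cysteine is the mean control-channel reporter intensity divided by the mean compound-channel reporter intensity.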

log2 ratio of iodoacetamide-alkyne labeling, inactive:
UniProt O94901_C63 0.378, KIF20A C270 (UniProt O95235) 0.563, UniProt P07437_C211 0.276, CAPNS1 C190 (UniProt P04632) 0.0116, UniProt O95696_C937 0.102, HPRT1 C106 (UniProt P00492) 0.279, UniProt P07437_C303 0.421, UniProt O94822_C186 -0.317, LDHA C163 (UniProt P00338) 0.164, TP53 C277 (UniProt P04637) 0.269, POLR1A C822 (UniProt O95602) -0.0124, ANXA2 C9 (UniProt P07355) 0.243, OAT C150 (UniProt P04181) 0.262, UniProt P07437_C201 0.243, PFN1 C71 (UniProt P07737) -0.0177
